From US20130189283A1
Substitutions are numbered along the chain they refer to. These are yes or no findings as the source states them, for the method shown. Some binding calls cover weakened binding; strength is not graded here. One block for each binder: values may come before it.

Assays:
[1] = biological target: Soluble human TR2 (huTR2 long-huFc (IgG1)) (human); test: BIAcore solution equilibrium assay; up to 50 µM antibody with 10 nM TR2 (FIG. 20A-B)
[2] = biological target: Soluble human TR2 (huTR2 long-huFc (IgG1)) (human); test: BIAcore solution equilibrium assay: antibody incubated with TR2, free TR2 read on immobilised antibody 16449
[3] = biological target: Soluble human TR2 (huTR2 long-huFc (IgG1)) (human); test: BIAcore solution equilibrium assay; 7 pM to 10 nM antibody with 1 nM TR2, free TR2 read on immobilised 16449

- binding [1]: binds
B1: Antibody 10186 (antibody, V domains shown)
VH: QVQLQESGPGLVKPSQTLSLTCTVSGGSISSGDYAWSWIRQLPGKGLEWIGHIHNSGTTYYNPSLKSRVTISVDTSKKQFSLRLSSVTAADTAVYYCARDRGGDYYAGMDVWGQGTTVTVSS
VL: EIVLTQSPGTLSLSPGERATLSCRASQGISRSYLAWYQQKPGQAPSLLIYGASSRATGIPDRFSGSGSGTDFTLTISRLEPEDFAVYYCQQAGSSPWTFGQGTKVEIK

B2: Antibody 1920 (antibody, V domains shown)
VH: B1 VH with A35F
VL: B1 VL with A92F
- binding [2]: no binding (tested: 50 nM antibody with 10 nM TR2)

B3: Antibody 1913 (antibody, V domains shown)
VH: B1 VH with A107Y
VL: B1 VL with A92F
- binding [2]: no binding (tested: 50 nM antibody with 10 nM TR2)

B4: Antibody 1910 (antibody, V domains shown)
VH: B1 VH with A35F, A107Y
VL: B1 VL
- binding [2]: no binding (tested: 50 nM antibody with 10 nM TR2)

B5: Antibody 16613 (antibody, V domains shown)
VH: B1 VH with A35F, A107Y
VL: B1 VL with Y33A, A92F
- binding [2]: no binding (tested: 50 nM antibody with 10 nM TR2)

- binding [3]: binds
B6: Antibody 1870 (antibody, V domains shown)
VH: B1 VH with A35F, Y105A, A107Y
VL: B1 VL with A92F

B7: Antibody 1922 (antibody, V domains shown)
VH: B1 VH with A35F, Y105A, Y106A
VL: B1 VL with A92F
- binding [2]: no binding (tested: 50 nM antibody with 10 nM TR2)

- binding [3]: binds
B8: Antibody 1869 (antibody, V domains shown)
VH: B1 VH with A35F, D104A, A107Y
VL: B1 VL with A92F

- binding [3]: binds
B9: Antibody 16449 (antibody, V domains shown)
VH: B1 VH with A35F, A107Y
VL: B1 VL with A92F
